{"sequences": {"note": "By UniProt entry, the sequences of proteins in these tests, tags left out. Where a name states a change or a piece, a line headed by the entry shows the natural chain unless it says otherwise.", "UniProt Q8N3J3": "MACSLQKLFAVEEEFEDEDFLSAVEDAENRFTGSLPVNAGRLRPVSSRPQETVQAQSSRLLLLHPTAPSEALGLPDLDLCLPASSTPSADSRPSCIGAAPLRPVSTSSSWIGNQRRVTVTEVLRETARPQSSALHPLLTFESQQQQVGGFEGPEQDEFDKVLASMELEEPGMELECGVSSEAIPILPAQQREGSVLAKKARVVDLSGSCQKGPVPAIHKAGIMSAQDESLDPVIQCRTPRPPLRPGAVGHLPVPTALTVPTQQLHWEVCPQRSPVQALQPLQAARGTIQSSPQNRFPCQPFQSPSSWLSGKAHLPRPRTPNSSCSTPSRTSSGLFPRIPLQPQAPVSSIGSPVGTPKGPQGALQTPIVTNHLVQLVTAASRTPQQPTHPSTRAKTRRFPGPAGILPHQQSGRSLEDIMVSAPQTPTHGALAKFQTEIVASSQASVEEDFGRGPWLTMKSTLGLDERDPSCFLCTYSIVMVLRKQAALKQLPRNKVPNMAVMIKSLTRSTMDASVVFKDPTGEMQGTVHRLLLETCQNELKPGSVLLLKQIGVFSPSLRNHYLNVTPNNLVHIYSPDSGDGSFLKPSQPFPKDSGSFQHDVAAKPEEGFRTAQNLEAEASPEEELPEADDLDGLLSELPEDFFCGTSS", "UniProt P27694": "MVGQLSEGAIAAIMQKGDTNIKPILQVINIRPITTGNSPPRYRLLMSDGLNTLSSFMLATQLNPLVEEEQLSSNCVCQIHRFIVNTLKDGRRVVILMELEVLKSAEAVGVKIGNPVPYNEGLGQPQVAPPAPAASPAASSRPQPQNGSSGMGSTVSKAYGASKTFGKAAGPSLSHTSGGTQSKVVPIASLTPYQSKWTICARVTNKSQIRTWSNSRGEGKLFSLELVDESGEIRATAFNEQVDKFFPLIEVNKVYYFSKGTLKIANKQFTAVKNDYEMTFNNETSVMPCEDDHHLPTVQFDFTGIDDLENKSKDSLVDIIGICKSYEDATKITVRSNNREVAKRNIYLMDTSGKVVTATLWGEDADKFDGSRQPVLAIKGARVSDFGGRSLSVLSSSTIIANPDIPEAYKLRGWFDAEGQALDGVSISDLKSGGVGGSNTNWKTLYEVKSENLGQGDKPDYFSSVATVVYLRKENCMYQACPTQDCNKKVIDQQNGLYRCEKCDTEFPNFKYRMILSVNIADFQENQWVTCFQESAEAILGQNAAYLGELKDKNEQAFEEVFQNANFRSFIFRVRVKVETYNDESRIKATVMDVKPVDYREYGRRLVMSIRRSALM"}, "source": "paper PMC7290032", "key": {"[1]": {"biological_target": "GST-MCM8IP lacking the first acidic motif (Δ1–54) (human) (UniProt Q8N3J3)", "experiment": "pull-down; GST fusion from E. coli held on glutathione-agarose and washed, incubated 2 h at 4 °C with cleared lysate of bacteria expressing the partner; 20 mM Tris-HCl pH 7.5, 200 mM NaCl, 0.5% NP40; western blot; only the target purified"}, "[2]": {"biological_target": "GST-MCM8IP lacking the second acidic motif (Δ153–168) (human) (UniProt Q8N3J3)", "experiment": "pull-down; GST fusion from E. coli held on glutathione-agarose and washed, incubated 2 h at 4 °C with cleared lysate of bacteria expressing the partner; 20 mM Tris-HCl pH 7.5, 200 mM NaCl, 0.5% NP40; western blot; only the target purified"}}, "note": "Results are given in words; binding and its absence hold for the method and conditions named. Binding seen in cells or lysates may run through a third protein. Binding can be weak; no strength is given."}
{"substance": "RPA1 (expressed in bacteria) (from UniProt P27694 1-616)", "values": [{"measurement": "binding", "setting": "[1]", "result": "binds"}, {"measurement": "binding", "setting": "[2]", "result": "binds"}]}
